Earlier results, collected in patent US11612574B2 (priority 2020, dated 2023).

Tested on: SARS-CoV-2
Conditions: cited from earlier work

SMILES: CN1CCC[C@@H]1CCO[C@](C)(c1ccccc1)c1ccc(Cl)cc1 [clemastine]
- inhibition of SARS-CoV-2 in vitro: inhibit
